# PubChem BioAssay AID1487 (National Center for Advancing Translational Sciences (NCATS), 2009)
# Some of the results follow. These are further read-outs of the screen, such as a control signal, another cell line or another target. No call is given for them. Compounds called inactive in the main read-out are mostly missing here. Potencies come from curve fits of mixed quality, noted in brackets.
# Test: qHTS Assay for Modulators of Lamin A Splicing
# Conditions: HeLa LMNA splicing GFP/RFP minigene ratio, 48 h
# In short: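 S3 HeLa cells stably expressing lamin A-EGFP splicing minigene plus DsRed2, 600 cells/well, 48 h compound exposure at 37C. Laser-scanning cytometry; analysed as GFP (500-530 nm)/RFP (575-640 nm) total intensity ratio; 0.5% DMSO vehicle.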
# [1] = measured here: RFP viability control channel
# [2] = measured here: GFP splicing reporter channel
smiles,measurement,setting,value
O=C(c1cccs1)c1no[n+]([O-])c1C(=O)c1cccs1,AC50,[1],"0.0158 µM [falling, full curve, poor fit]"
COc1ccc2[nH]cc(CC(=O)O)c2c1,AC50,[2],"0.0708 µM [falling, full curve, poor fit]"
c1cncc(-c2nc(NCCN3CCOCC3)c3ccccc3n2)c1,AC50,[1],"35.5 µM [rising, single point]"
COCCOC(=O)/C(=C/c1ccc(OC(=O)c2ccccc2)cc1)C(C)=O,AC50,[1],"14.1 µM [rising, single point]"
O=C(NNC(=O)c1cccc(Br)c1)C(=O)N1CCCCC1,AC50,[2],"0.00447 µM [falling, full curve, poor fit]"
same,AC50,[1],"0.00447 µM [falling, full curve, poor fit]"
O=C(CCSCCc1ccccn1)Nc1cc(F)ccc1F,AC50,[2],"6.31 µM [rising, single point]"
COc1ccc(C2CC(c3ccccc3OC(C)=O)=NN2C(=O)/C=C/c2ccccc2)cc1OC (stereo not given),AC50,[1],"22.4 µM [rising, single point]"
CCCC[n+]1c(C)sc2ccc(C)cc21,AC50,[2],"0.0708 µM [rising, full curve, poor fit]"
COc1ccc(-n2c(C)cc(/C=C3\SC(=S)NC3=O)c2C)cc1,AC50,[2],"35.5 µM [rising, partial curve, poor fit]"
Cc1ccc(C)c(N2CCN(S(=O)(=O)c3ccc4c(c3)CCC(=O)N4)CC2)c1,AC50,[2],"6.31 µM [rising, single point]"
same,AC50,[1],"10 µM [rising, partial curve]"
O=C(CSc1ncnc2ccccc12)Nc1ccc2c(c1)OCCO2,AC50,[1],"31.6 µM [rising, single point]"
COc1ccc(Cl)cc1NC(=O)c1cc(-c2ccccc2O)n[nH]1,AC50,[2],"2.51 µM [falling, partial curve, poor fit]"
Cc1ccc(C)c(N2CCN(C(=O)C3CCCCN3S(=O)(=O)c3ccc(F)cc3)CC2)c1 (stereo not given),AC50,[1],"31.6 µM [rising, single point]"
CCCCOc1ccc(S(=O)(=O)Nc2cc(OC)ccc2OC)cc1,AC50,[2],"11.2 µM [rising, partial curve]"
same,AC50,[1],"11.2 µM [rising, partial curve]"
Cn1nc(C(F)(F)F)c(C(=O)Nc2ccc(F)cc2F)c1Cl,AC50,[2],"0.00562 µM [rising, full curve, poor fit]"
same,AC50,[1],"0.00447 µM [rising, full curve, poor fit]"
CCCOC(=O)/C(=C\c1ccc([N+](=O)[O-])o1)NC(=O)c1ccccc1,AC50,[1],"35.5 µM [rising, single point]"

# Some of the entries so far, bar-delimited.
smiles | measurement | setting | value
COCCOC(=O)/C(=C/c1ccc(OC(=O)c2ccccc2)cc1)C(C)=O | AC50 | [1] | 14.1 µM [rising, single point]
O=C(NNC(=O)c1cccc(Br)c1)C(=O)N1CCCCC1 | AC50 | [2] | 0.00447 µM [falling, full curve, poor fit]
